Results on two molecules are retold here after US20060053496A1.

The chains behind the UniProt entries cited, without tags or fusion partners.
UniProt Q99558: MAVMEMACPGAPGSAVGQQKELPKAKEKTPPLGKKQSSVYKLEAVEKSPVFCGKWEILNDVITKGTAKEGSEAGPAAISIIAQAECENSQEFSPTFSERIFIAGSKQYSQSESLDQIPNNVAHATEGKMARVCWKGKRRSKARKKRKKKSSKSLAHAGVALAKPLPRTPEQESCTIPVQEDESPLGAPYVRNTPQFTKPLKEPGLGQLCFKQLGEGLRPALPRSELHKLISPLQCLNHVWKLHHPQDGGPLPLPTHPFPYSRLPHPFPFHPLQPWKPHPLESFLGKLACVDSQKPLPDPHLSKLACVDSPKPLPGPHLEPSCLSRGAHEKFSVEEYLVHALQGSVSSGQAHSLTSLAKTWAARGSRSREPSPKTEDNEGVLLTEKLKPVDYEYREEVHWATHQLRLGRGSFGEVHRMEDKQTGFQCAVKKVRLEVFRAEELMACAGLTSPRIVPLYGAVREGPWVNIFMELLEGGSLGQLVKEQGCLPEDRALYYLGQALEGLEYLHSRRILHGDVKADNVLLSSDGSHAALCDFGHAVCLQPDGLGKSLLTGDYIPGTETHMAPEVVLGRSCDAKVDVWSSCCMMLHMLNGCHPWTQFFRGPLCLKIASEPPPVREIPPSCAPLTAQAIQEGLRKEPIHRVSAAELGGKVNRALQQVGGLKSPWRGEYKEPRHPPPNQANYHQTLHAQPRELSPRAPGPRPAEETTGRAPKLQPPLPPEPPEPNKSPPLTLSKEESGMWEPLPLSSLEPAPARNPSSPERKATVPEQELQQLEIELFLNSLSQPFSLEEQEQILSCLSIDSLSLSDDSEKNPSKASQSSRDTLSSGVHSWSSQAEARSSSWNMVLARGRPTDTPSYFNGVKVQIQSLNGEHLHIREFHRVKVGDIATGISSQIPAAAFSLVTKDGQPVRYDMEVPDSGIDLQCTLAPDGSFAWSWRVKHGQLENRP
UniProt Q96P20: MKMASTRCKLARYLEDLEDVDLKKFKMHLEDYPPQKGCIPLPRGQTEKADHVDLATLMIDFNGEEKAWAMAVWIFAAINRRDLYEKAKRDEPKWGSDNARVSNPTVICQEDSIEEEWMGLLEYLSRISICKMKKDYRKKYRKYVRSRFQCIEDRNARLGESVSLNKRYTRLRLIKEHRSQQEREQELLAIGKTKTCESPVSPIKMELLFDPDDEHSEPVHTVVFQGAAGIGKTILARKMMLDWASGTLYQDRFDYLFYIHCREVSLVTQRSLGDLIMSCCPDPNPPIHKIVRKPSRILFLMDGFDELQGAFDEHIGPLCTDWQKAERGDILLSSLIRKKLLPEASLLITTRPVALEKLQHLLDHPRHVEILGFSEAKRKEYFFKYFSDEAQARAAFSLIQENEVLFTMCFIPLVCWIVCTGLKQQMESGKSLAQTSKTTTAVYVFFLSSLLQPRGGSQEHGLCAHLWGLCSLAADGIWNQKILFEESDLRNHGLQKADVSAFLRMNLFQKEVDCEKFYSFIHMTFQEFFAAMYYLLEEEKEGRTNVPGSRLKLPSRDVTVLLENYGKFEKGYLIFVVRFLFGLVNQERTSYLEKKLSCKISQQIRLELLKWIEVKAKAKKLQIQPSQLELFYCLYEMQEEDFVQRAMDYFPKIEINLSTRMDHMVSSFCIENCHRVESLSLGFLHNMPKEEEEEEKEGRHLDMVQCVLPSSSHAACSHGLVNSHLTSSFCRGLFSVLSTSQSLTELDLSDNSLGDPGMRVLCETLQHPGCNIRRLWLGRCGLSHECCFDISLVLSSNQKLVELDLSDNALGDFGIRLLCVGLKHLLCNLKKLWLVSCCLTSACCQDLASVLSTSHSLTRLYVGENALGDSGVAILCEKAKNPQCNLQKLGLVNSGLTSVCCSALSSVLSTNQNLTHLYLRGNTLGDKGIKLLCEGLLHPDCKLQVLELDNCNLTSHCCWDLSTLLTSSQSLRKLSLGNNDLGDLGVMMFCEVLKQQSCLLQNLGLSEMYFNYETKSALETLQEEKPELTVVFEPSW

No constants are given. Whether binding was seen depends on the method and setting. Binding seen in cells or lysates may run through a third protein. Some results given as binding are weak or reduced against the parent protein; the word gives no strength. Where a sequence is shown, tags or fusion partners need not be part of it.

Assay [1] deals with NF-κB Inducing Kinase (UniProt Q99558). Briefly: co-immunoprecipitation from transfected 293T cells (anti-FLAG M2 IP, anti-NIK H-248 western blot). Background: A western blot detects proteins with antibodies after separation by electrophoresis.
The target is the same in assay [2]. Briefly: summary sentence of Example 2 (co-immunoprecipitation).
For assay [3], the target named is FLAG-tagged CIAS1 (human) (UniProt Q96P20). Description: co-immunoprecipitation from transfected 293T cells (anti-FLAG IP of CIAS1, anti-HA western blot).
Assay [4] has the same target. Description: summary sentence of Example 2 (co-immunoprecipitation).

B1: FLAG-tagged Monarch-1 (protein, not shown: small tags and cut ends)
chain: MLRTAGRDGLCRLSTYLEELEAVELKKFKLYLGTATELGEGKIPWGSMEKAGPLEMAQLLITHFGPEEAWRLALSTFERINRKDLWERGQREDLVRDTPPGGPSSLGNQSTCLLEVSLVTPRKDPQETYRDYVRRKFRLMEDRNARLGECVNLSHRYTRLLLVKEHSNPMQVQQQLLDTGRGHARTVGHQASPIKIETLFEPDEERPEPPRTVVMQGAAGIGKSMLAHKVMLDWADGKLFQGRFDYLFYINCREMNQSATECSMQDLIFSCWPEPSAPLQELIRVPERLLFIIDGFDELKPSFHDPQGPWCLCWEEKRPTELLLNSLIRKKLLPELSLLITTRPTALEKLHRLLEHPRHVEILGFSEAERKEYFYKYFHNAEQAGQVFNYVRDNEPLFTMCFVPLVCWVVCTCLQQQLEGGGLLRQTSRTTTAVYMLYLLSLMQPKPGAPRLQPPPNQRGLCSLAADGLWNQKILFEEQDLRKHGLDGEDVSAFLNMNIFQKDINCERYYSFIHLSFQEFFAAMYYILDEGEGGAGPDQDVTRLLTEYAFSERSFLALTSRFLFGLLNEETRSHLEKSLCWKVSPHIKMDLLQWIQSKAQSDGSTLQQGSLEFFSCLYEIQEEEFIQQALSHFQVIVVSNIASKMEHMVSSFCLKRCRSAQVLHLYGATYSADGEDRARCSAGAHTLLVQLRPERTVLLDAYSEHLAAALCTNPNLIELSLYRNALGSRGVKLLCQGLRHPNCKLQNLRLKRCRISSSACEDLSAALIANKNLTRMDLSGNGVGFPGMMLLCEGLRHPQCRLQMIQLRKCQLESGACQEMASVLGTNPHLVELDLTGNALEDLGLRLLCQGLRHPVCRLRTLWLKICRLTAAACDELASTLSVNQSLRELDLSLNELGDLGVLLLCEGLRHPTCKLQTLRLGICRLGSAACEGLSVVLQANHNLRELDLSFNDLGDWGLWLLAEGLQHPACRLQKLWLDSCGLTAKACENLYFTLGINQTLTDLYLTNNALGDTGVRLLCKRLSHPGCKLRVLWLFGMDLNKMTHSRLAALRVTKPYLDIGC
Take B1: the binding entry with NF-κB Inducing Kinase [1] and with NF-κB Inducing Kinase [2] was “binds” each time.

B2: HA-tagged Monarch-1 (protein, not shown: small tags and cut ends)
chain: MLRTAGRDGLCRLSTYLEELEAVELKKFKLYLGTATELGEGKIPWGSMEKAGPLEMAQLLITHFGPEEAWRLALSTFERINRKDLWERGQREDLVRDTPPGGPSSLGNQSTCLLEVSLVTPRKDPQETYRDYVRRKFRLMEDRNARLGECVNLSHRYTRLLLVKEHSNPMQVQQQLLDTGRGHARTVGHQASPIKIETLFEPDEERPEPPRTVVMQGAAGIGKSMLAHKVMLDWADGKLFQGRFDYLFYINCREMNQSATECSMQDLIFSCWPEPSAPLQELIRVPERLLFIIDGFDELKPSFHDPQGPWCLCWEEKRPTELLLNSLIRKKLLPELSLLITTRPTALEKLHRLLEHPRHVEILGFSEAERKEYFYKYFHNAEQAGQVFNYVRDNEPLFTMCFVPLVCWVVCTCLQQQLEGGGLLRQTSRTTTAVYMLYLLSLMQPKPGAPRLQPPPNQRGLCSLAADGLWNQKILFEEQDLRKHGLDGEDVSAFLNMNIFQKDINCERYYSFIHLSFQEFFAAMYYILDEGEGGAGPDQDVTRLLTEYAFSERSFLALTSRFLFGLLNEETRSHLEKSLCWKVSPHIKMDLLQWIQSKAQSDGSTLQQGSLEFFSCLYEIQEEEFIQQALSHFQVIVVSNIASKMEHMVSSFCLKRCRSAQVLHLYGATYSADGEDRARCSAGAHTLLVQLRPERTVLLDAYSEHLAAALCTNPNLIELSLYRNALGSRGVKLLCQGLRHPNCKLQNLRLKRCRISSSACEDLSAALIANKNLTRMDLSGNGVGFPGMMLLCEGLRHPQCRLQMIQLRKCQLESGACQEMASVLGTNPHLVELDLTGNALEDLGLRLLCQGLRHPVCRLRTLWLKICRLTAAACDELASTLSVNQSLRELDLSLNELGDLGVLLLCEGLRHPTCKLQTLRLGICRLGSAACEGLSVVLQANHNLRELDLSFNDLGDWGLWLLAEGLQHPACRLQKLWLDSCGLTAKACENLYFTLGINQTLTDLYLTNNALGDTGVRLLCKRLSHPGCKLRVLWLFGMDLNKMTHSRLAALRVTKPYLDIGC
On to B2, for which the binding result in assay [3] and in assay [4] was “binds” each time.
